Where a name gives a salt, the structure may show the parent alone. This is one part of the list. Single values are uncertain, as repeats are few or missing.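 Three clinical Candida auris isolates (clades III, IV and I) from the CDC resistance isolate bank were grown in RPMI-1640 at 35°C. Growth was background-corrected OD600 relative to same-plate vehicle-only wells. Hits required over 50% inhibition in at least two strains and a plate-corrected B-score above 0.1.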
Each compound was assayed on C. auris AR-384 (assay: growth relative to vehicle control (OD600 ratio) (fraction); higher = less inhibition). Settings: 10 µM; 24 h.
Work on COc1ccc(C(=O)c2ccccc2)c(O)c1 [Oxybenzone] yielded a growth of 0.89.
With CO/N=C(\C(=O)N[C@@H]1C(=O)N2C(C(=O)OCOC(=O)C(C)(C)C)=C(/C=C\c3scnc3C)CS[C@H]12)c1csc(N)n1 [Cefditoren Pivoxil] the growth was 0.93.
CC(C(=O)O)c1cccc(Oc2ccccc2)c1 (stereo not given) [Fenoprofen Calcium] gave a growth of 1.07.
With NC(=O)c1cnccn1 [Pyrazinamide] the growth was 0.94.
With CSc1nc2cc(Cl)c(Oc3cccc(Cl)c3Cl)cc2[nH]1 [Triclabendazole] the growth was 0.13.
Cn1nnc2c(C(N)=O)ncn2c1=O [Temozolomide] showed a growth of 0.55.
Work on CCCSc1ccc2[nH]c(NC(=O)OC)nc2c1 [Albendazole] yielded a growth of 0.61.
For CC(=O)O[C@]1(C(C)=O)CC[C@H]2[C@@H]3C[C@H](C)C4=CC(=O)C=C[C@]4(C)[C@@]3(F)[C@@H](O)C[C@@]21C [Fluorometholone Acetate], the growth was 1.3.
Compound CC(C)CCCCC(=O)N[C@@H](CCN)C(=O)N[C@H](C(=O)N[C@@H](CCN)C(=O)N[C@H]1CCNC(=O)[C@H]([C@@H](C)O)NC(=O)[C@H](CCN)NC(=O)[C@H](CCN)NC(=O)[C@H](CC(C)C)NC(=O)[C@@H](Cc2ccccc2)NC(=O)[C@H](CCN)NC1=O)[C@@H](C)O [Polymyxin B sulphate] has a growth of 0.76.
NCCc1c[nH]cn1 [Histamine 2HCl] gave a growth of 0.87.
O=c1[nH]c(=O)n([C@H]2C[C@H](O)[C@@H](CO)O2)cc1F [Floxuridine] gave a growth of 0.58.
Work on N[C@@H](Cc1cc(I)c(Oc2cc(I)c(O)c(I)c2)c(I)c1)C(=O)O [L-Thyroxine] yielded a growth of 0.98.
Compound OC(Cn1cncn1)(Cn1cncn1)c1ccc(F)cc1F [Fluconazole] has a growth of 1.2.
For C#Cc1cccc(Nc2ncnc3cc(OC)c(OCCCCCCC(=O)NO)cc23)c1, the growth was 1.28.
CCCc1nc(C)c2c(=O)nc(-c3cc(S(=O)(=O)N4CCN(CC)CC4)ccc3OCC)[nH]n12 [Vardenafil HCl Trihydrate] was tested, and the growth was 1.07.
CCn1cc(C(=O)O)c(=O)c2cc(F)c(N3CCNCC3)nc21 [Enoxacin] showed a growth of 0.68.

The compounds below were run on C. auris AR-386 in the same assay as above. Settings: 1 µM; 24 h.
Compound CCOc1cc2ncc(C#N)c(Nc3ccc(OCc4ccccn4)c(Cl)c3)c2cc1NC(=O)/C=C/CN(C)C [Neratinib (HKI-272)] has a growth of 0.78.
For CC(=O)Oc1ccccc1C(=O)O [Aspirin], the growth was 0.88.
With Cc1ccnc2c1NC(=O)c1cccnc1N2C1CC1 [Nevirapine] the growth was 1.36.
O=C(O)c1ccc(-n2nc(-c3ccccc3O)nc2-c2ccccc2O)cc1 [Deferasirox] was tested, and the growth was 1.19.
With CC(C(=O)O)c1ccc(C(=O)c2cccs2)cc1 (stereo not given) [Suprofen] the growth was 1.
NC(=O)N1c2ccccc2C=Cc2ccccc21 [Carbamazepine] gave a growth of 1.19.
For NC(=O)c1cccc2cn(-c3ccc([C@@H]4CCCNC4)cc3)nc12 [Niraparib (MK-4827)], the growth was 1.12.
COc1cc2nc(N(C)CCCNC(=O)C3CCCO3)nc(N)c2cc1OC (stereo not given) [Alfuzosin HCl] was tested, and the growth was 0.65.
Work on CCn1cc(C(=O)O)c(=O)c2cc(F)c(N3CCNCC3)cc21 [Norfloxacin] yielded a growth of 0.96.
COc1nc(C)cnc1NS(=O)(=O)c1cccnc1-c1ccc(-c2nnco2)cc1 [Zibotentan (ZD4054)] showed a growth of 1.05.
Compound Cc1nc2n(c(=O)c1CCN1CCC(c3noc4cc(F)ccc34)CC1)CCCC2 [Risperidone] has a growth of 1.38.
O=C1O[C@H]([C@@H](O)CO)C(O)=C1O [Vitamin C] gave a growth of 1.04.
Work on CC(=O)Oc1cc2c(s1)CCN(C(C(=O)C1CC1)c1ccccc1F)C2 (stereo not given) [Prasugrel Hydrochloride] yielded a growth of 0.8.
CN(C)[C@@H](CCOc1cccc2ccccc12)c1ccccc1 [Dapoxetine HCl] was tested, and the growth was 0.95.
O=C(O)C1(C(=O)O)CCC1.[NH2-].[NH2-].[Pt+2] [Carboplatin] was tested, and the growth was 0.78.
With COc1cc(N)c(Cl)cc1C(=O)NC1CCN(CCCOc2ccc(F)cc2)CC1OC (stereo not given) [Cisapride hydrate] the growth was 0.84.
In the case of CC(=O)O[C@]1(C(C)=O)CC[C@H]2[C@@H]3C[C@H](C)C4=CC(=O)CC[C@]4(C)[C@H]3CC[C@@]21C [Medroxyprogesterone acetate], the growth is reported as 1.02.
With O=C1C(O)=C([C@H]2CC[C@H](c3ccc(Cl)cc3)CC2)C(=O)c2ccccc21 [Atovaquone] the growth was 0.9.
With COc1ccccc1Oc1c(NS(=O)(=O)c2ccc(C(C)(C)C)cc2)nc(-c2ncccn2)nc1OCCO [Bosentan Hydrate] the growth was 0.83.
For N=C(N)NCCC[C@H](N)C(=O)O [L-Arginine HCl (L-Arg)], the growth was 0.98.
For CC(C)Cc1ccc(C(C)C(=O)O)cc1 (stereo not given) [Ibuprofen Lysine], the growth was 1.15.
Work on COc1ccc2cc([C@H](C)C(=O)O)ccc2c1 [Naproxen Sodium] yielded a growth of 1.17.
In the case of Cc1cccc(-c2nn3c(c2-c2ccnc4ccc(C(N)=O)cc24)CCC3)n1, the growth is reported as 0.81.
Compound COc1ccc(C(=O)c2ccccc2)c(O)c1 [Oxybenzone] has a growth of 1.01.
With CO/N=C(\C(=O)N[C@@H]1C(=O)N2C(C(=O)OCOC(=O)C(C)(C)C)=C(/C=C\c3scnc3C)CS[C@H]12)c1csc(N)n1 [Cefditoren Pivoxil] the growth was 0.72.
For CC(C(=O)O)c1cccc(Oc2ccccc2)c1 (stereo not given) [Fenoprofen Calcium], the growth was 1.16.
For NC(=O)c1cnccn1 [Pyrazinamide], the growth was 1.13.
Compound CSc1nc2cc(Cl)c(Oc3cccc(Cl)c3Cl)cc2[nH]1 [Triclabendazole] has a growth of 0.83.
Work on Cn1nnc2c(C(N)=O)ncn2c1=O [Temozolomide] yielded a growth of 0.59.
Work on CCCSc1ccc2[nH]c(NC(=O)OC)nc2c1 [Albendazole] yielded a growth of 0.44.
CC(=O)O[C@]1(C(C)=O)CC[C@H]2[C@@H]3C[C@H](C)C4=CC(=O)C=C[C@]4(C)[C@@]3(F)[C@@H](O)C[C@@]21C [Fluorometholone Acetate] showed a growth of 1.22.
For CC(C)CCCCC(=O)N[C@@H](CCN)C(=O)N[C@H](C(=O)N[C@@H](CCN)C(=O)N[C@H]1CCNC(=O)[C@H]([C@@H](C)O)NC(=O)[C@H](CCN)NC(=O)[C@H](CCN)NC(=O)[C@H](CC(C)C)NC(=O)[C@@H](Cc2ccccc2)NC(=O)[C@H](CCN)NC1=O)[C@@H](C)O [Polymyxin B sulphate], the growth was 0.96.
NCCc1c[nH]cn1 [Histamine 2HCl] showed a growth of 0.87.
Work on O=c1[nH]c(=O)n([C@H]2C[C@H](O)[C@@H](CO)O2)cc1F [Floxuridine] yielded a growth of 0.82.
With N[C@@H](Cc1cc(I)c(Oc2cc(I)c(O)c(I)c2)c(I)c1)C(=O)O [L-Thyroxine] the growth was 1.14.
OC(Cn1cncn1)(Cn1cncn1)c1ccc(F)cc1F [Fluconazole] gave a growth of 1.14.
In the case of C#Cc1cccc(Nc2ncnc3cc(OC)c(OCCCCCCC(=O)NO)cc23)c1, the growth is reported as 1.28.
CCCc1nc(C)c2c(=O)nc(-c3cc(S(=O)(=O)N4CCN(CC)CC4)ccc3OCC)[nH]n12 [Vardenafil HCl Trihydrate] showed a growth of 0.75.
With CCn1cc(C(=O)O)c(=O)c2cc(F)c(N3CCNCC3)nc21 [Enoxacin] the growth was 0.76.

Reference: the supplement of paper PMC10470496
